Library screen at single concentrations

Sequences of proteins named here, by UniProt entry; tags and fusion partners are left off.
UniProt I6X8D2, whole entry: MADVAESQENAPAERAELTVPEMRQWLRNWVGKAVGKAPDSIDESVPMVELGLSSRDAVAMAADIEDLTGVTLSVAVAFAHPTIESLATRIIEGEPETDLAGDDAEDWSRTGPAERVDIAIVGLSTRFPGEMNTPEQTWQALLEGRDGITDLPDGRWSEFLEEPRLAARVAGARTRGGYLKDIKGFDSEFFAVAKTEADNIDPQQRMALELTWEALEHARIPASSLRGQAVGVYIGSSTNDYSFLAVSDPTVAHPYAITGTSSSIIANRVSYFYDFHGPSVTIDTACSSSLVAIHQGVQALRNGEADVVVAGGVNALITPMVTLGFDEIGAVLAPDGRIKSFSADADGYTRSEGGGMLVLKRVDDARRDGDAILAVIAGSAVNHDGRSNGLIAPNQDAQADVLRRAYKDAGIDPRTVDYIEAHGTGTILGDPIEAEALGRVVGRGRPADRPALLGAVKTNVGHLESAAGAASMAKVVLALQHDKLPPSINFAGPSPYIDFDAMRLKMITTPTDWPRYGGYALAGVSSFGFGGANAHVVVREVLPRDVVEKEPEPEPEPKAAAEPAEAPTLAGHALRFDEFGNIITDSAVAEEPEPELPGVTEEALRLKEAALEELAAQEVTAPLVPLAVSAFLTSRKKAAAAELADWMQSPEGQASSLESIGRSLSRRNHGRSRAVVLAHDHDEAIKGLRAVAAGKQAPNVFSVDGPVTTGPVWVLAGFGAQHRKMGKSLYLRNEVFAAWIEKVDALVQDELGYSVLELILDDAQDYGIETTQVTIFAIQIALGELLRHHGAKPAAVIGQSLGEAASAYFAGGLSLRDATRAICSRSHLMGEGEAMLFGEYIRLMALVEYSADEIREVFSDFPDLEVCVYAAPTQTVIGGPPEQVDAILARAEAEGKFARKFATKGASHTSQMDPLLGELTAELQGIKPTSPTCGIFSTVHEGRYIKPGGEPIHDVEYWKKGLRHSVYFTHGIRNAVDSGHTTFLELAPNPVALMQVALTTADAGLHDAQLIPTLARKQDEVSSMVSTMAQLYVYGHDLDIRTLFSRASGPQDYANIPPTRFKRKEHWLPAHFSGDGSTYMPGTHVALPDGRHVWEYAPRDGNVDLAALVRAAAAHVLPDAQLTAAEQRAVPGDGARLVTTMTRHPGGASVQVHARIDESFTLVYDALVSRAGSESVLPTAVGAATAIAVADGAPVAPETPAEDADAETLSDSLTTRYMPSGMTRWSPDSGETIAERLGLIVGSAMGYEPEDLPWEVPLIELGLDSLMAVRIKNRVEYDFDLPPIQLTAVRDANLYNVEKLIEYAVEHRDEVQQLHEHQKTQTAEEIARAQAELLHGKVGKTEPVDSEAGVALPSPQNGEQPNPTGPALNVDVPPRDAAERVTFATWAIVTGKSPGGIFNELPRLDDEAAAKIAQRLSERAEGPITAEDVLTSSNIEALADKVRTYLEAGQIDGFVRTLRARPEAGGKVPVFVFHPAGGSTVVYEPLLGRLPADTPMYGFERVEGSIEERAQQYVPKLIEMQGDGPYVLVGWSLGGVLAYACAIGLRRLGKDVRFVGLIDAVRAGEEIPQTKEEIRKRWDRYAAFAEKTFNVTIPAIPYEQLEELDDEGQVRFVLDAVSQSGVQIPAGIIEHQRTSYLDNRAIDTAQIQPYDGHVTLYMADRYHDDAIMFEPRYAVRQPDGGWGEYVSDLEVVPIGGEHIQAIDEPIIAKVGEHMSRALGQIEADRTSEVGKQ

Source: ChEMBL document CHEMBL3988442, “University of Dundee, Small-Polar-MMV Screening Library” (2021).

Each number is a percent effect as filed. The controls that fix the scale are not given in the record; negative values are as filed. The compounds are a random part of those screened. A dash means the value is not listed here; it may have been measured.

A: 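Assay of Toxoplasma gondii numbers, read through their beta-galactosidase reporter with a colour substrate. Tested at 10 µM. Higher reads as fewer parasites (inferred from which compounds were picked for retests). Of about 67,000 compounds tested this way, about 260 (0.38%) reached 50% or more in at least one test.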
B: 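Polyketide synthase Pks13, Mycobacterium tuberculosis (UniProt I6X8D2). Enzyme assay of the thioesterase domain of polyketide synthase 13; the read-out is not stated. Concentration: 30 µM. The record gives no direction; the compounds picked for IC50 retests had high values, so higher reads as stronger inhibition. Size under these conditions: about 67,000 compounds, about 300 of them at 50% or above in at least one test.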

Result for Cc1cc(Nc2cnccn2)cc(C2CCCNC2)n1 (centres undefined) was A: 11.32%; B: 9.275%. Result for Cn1ncc2c(N[C@H]3CCCC[C@@H]3O)nc(C(C)(C)C)nc21 was B: -20.67%. COC(=O)C1CCN(C(=O)c2ccc(C)c(NS(C)(=O)=O)c2)CC1 read A: -0.3064%; B: 0.2322%. For Cn1nccc1-c1ncc2c(c1C(=O)O)CCN(Cc1cccnc1)C2.O=C(O)C(F)(F)F.O=C(O)C(F)(F)F the result was A: -13.25%. CN(C)C(=O)CN1C[C@H]2CCN(C(=O)C3CCCO3)CC[C@H]2S1(=O)=O (some centres undefined) gave B: -6.583%. Result for Cc1noc(C)c1CC(=O)N1CCC(Nc2cccnn2)CC1 was A: -26.08%; B: -33.76%. COCC1CN(c2ccc(C)nn2)Cc2cnn(CC3CCOCC3)c21 (centres undefined) gave B: 2.925%. Result for COCCC(=O)N1CC2(CCN(Cc3cccc(Cl)c3)CC2)C1.O=C(O)C(F)(F)F was A: 1.387%.

Result for CC(=O)N1CC(=O)N(c2cccnc2)CC12CCN(Cc1nccs1)C2 (centres undefined) was B: -12.85%. With COc1ccc(CC(=O)N2CCC(c3n[nH]c(C4CC4)n3)CC2)cc1 the screen gave B: -0.8631%. With CCc1nnc2n1CCN(C(=O)c1csc(-c3cnn(C)c3)n1)C2 the screen gave A: -5.234%; B: 16.71%. Result for Cc1noc(CCCC(=O)N2CCN(C)CC2c2ccccc2)n1 (centres undefined) was A: 3.877%; B: -15.9%. With Cc1nc(CNC(=O)NCCc2ccc(N(C)C)cc2)cs1 the screen gave A: 8.673%; B: -5.866%. O=C(NCC(O)(c1cccs1)C1CC1)NC1CCCCC1 (centres undefined) read A: -0.6435%; B: 1.643%. For O=C(COc1ccc(F)cc1)N1CCO[C@H]2[C@@H](OCC3CC3)CC[C@@H]21 the result was B: -11.6%. Result for O=C(NCC1CCC2(CC1)OCCO2)c1cccc(-n2cccn2)c1 was A: 22.67%; B: -19.04%.

With COc1ncccc1CNC(=O)Nc1ccc(N(C)C)nc1 the screen gave A: 0.0349%; B: 0.9158%. With Cc1cc(C)nc(C2CCN(C(=O)c3cnco3)C2)n1 (centres undefined) the screen gave A: 8.053%; B: 6.915%. For Cc1cnc(C(=O)N2C[C@H]3CC[C@@H]2CN(S(=O)(=O)N(C)C)C3)cn1 the result was B: -12.03%. Cc1cc(C)nc(N2CC[C@@]3(O)CCN(S(=O)(=O)N(C)C)C[C@H]3C2)n1 gave B: -22.21%. CC(C)CNC(=O)C1CC(=O)N(c2n[nH]c3ccccc23)C1 (centres undefined) read A: 3.241%; B: -20.48%. For CN(C)Cc1cc(C2CCN(C(=O)C3CC34CCC4)CC2)nn1C (centres undefined) the result was B: -2.979%. With CSCC[C@@H](CO)n1ccnc1-c1nccn1C the screen gave A: 3.749%; B: 3.87%. With c1cncc(C[C@@H]2CC[C@H](CN3CCCOCC3)O2)c1 the screen gave A: -1.444%; B: -1.236%.

With COc1ccnc(N2CCN(Cc3ncc(C(C)(C)C)o3)CC2)n1 the screen gave A: 0.4725%; B: 13.26%. For COCCN1CCO[C@@H]2CN(S(=O)(=O)c3cccnc3)C[C@@H]2C1 the result was B: 6.73%. With c1cc(-c2c[nH]nc2C2CCCCC2)nc(N2CCCCCC2)n1 the screen gave A: 48.87%; B: 26.39%. With O=C(NC[C@]1(O)CN(Cc2ncccc2F)C[C@H]1O)c1cc[nH]n1 the screen gave A: -40.96%; B: -1.5%. COc1ccc(OC)c(CN2CCN(Cc3cscn3)CC2)c1 gave A: 7.308%; B: -40.61%. CN1CCN(C2CCN(Cc3nc(-c4ccoc4)no3)CC2)C1=O read A: 6.938%; B: -1.366%. CCC1CCCN(S(=O)(=O)c2cnc3onc(C)c3c2)C1 (centres undefined) gave A: -7.308%; B: -9.713%. Result for CC(C)(C)S(=O)(=O)CCNC(=O)c1cnc(-c2ccccc2)nc1 was A: 0.2899%; B: 5.491%.

With CCOCC1CN(C(=O)c2ccoc2)Cc2nn(C)cc21 (centres undefined) the screen gave A: 6.817%; B: -41.4%. CCc1nc2n(n1)CC(NCc1cnc(N(CC)CC)s1)CC2 (centres undefined) read A: -1.775%; B: -14.89%. COc1cccc2sc(N(C)CC(=O)NCc3nc(C)no3)nc12 read A: 4.387%; B: -18.53%. O[C@@H]1C[C@@](CNCC2CCCC2)(COc2cccnc2)C[C@@H]1O read B: -24.3%. Result for FC(F)(F)c1nc(C2CCCNC2)no1 (centres undefined) was B: 3.647%. For O=C(c1cscn1)N1CCC[C@]2(C[C@@H](OCC3CC3)CO2)C1 the result was A: -28.48%. For COCCN1CCOCC12CCN(C(=O)c1ccncc1)CC2.O=C(O)C(F)(F)F the result was A: -10.88%. Result for [H][C@@]12CCN(Cc3nccs3)C[C@]1([H])O[C@@H](C(=O)NCC1CC1)C2 was A: 6.724%.

Result for CC[C@@H](C)[C@@H](N)C(=O)Nc1cccc(-c2cnc(N(C)C)nc2)c1 was A: 3.508%; B: 4.292%. COc1ccccc1NC(=O)Cc1c(C)nc2c(c1C)c(=O)[nH]n2C gave A: 13.53%; B: -25.69%. Result for O=C(NCC(=O)N1CCCC1Cc1cccc(F)c1)c1ccccn1 (centres undefined) was A: 6.591%; B: -19.08%. Result for CCOC(=O)CNC(=O)c1cc(-c2ccccc2)nc2ncnn12 was A: -29.06%; B: -7.627%.

Repeated from the top, 2 entries:

SMILES,A,B
Cc1cc(Nc2cnccn2)cc(C2CCCNC2)n1 (centres undefined),11.32%,9.275%
Cn1ncc2c(N[C@H]3CCCC[C@@H]3O)nc(C(C)(C)C)nc21,-,-20.67%